Drawing on patent publication US20140017701A1, “CHIMERIC PDK1 KINASES” (priority 2011, published 2014), this text covers binding for one molecule.

The target in this assay is T1, His6-tagged PKCι Δ223 (human).
T1 sequence: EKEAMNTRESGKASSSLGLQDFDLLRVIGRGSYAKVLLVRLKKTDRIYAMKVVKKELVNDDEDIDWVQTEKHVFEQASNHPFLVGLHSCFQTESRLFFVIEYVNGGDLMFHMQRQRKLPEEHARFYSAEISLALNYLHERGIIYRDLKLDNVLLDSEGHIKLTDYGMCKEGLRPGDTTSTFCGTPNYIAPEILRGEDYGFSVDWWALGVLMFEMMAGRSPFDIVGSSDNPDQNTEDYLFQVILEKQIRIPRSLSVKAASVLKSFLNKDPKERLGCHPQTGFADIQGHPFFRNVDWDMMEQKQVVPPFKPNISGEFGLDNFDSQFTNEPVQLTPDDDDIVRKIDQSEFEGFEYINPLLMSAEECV
The assay is described as follows: AlphaScreen displacement of GST-PSR-C1 from His-PKCι Δ223; binding inferred from displacement.

No constants are given. Whether binding was seen depends on the method and setting. Some results given as binding are weak or reduced against the parent protein; the word gives no strength. Sequences can lack the tags named with a protein.

On to VGNQLPFIGFTYFRENL [ROCK-HM, HM polypeptide derived from the AGC kinase ROCK], for which the binding entry is listed as “binds”.
